This assay in a line: qHTS Assay for Lipid Storage Modulators in Drosophila S3 Cells.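 As to cell number change: cells counted by Cell Tracker Red CMTPX staining in the red channel.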 The following applies: BODIPY lipid droplet fluorescence, 18-24 h; for cell number change: measured here: cell count max response, cells fed with added oleic acid. The procedure, abridged: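 Drosophila S3 cells loaded with oleic acid (400 uM, as added) and compounds at several concentrations; lipid droplets imaged by 488-nm laser-scanning cytometry, 500–530 nm intensity and object ratio to cell channel. Percent activity normalized to 20 uM Triacsin C.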
In general terms: In qHTS, concentration-response curves come from the screen itself.

Where [1] appears, read: measured here: cell number channel AC50, cells fed with added oleic acid.
Setting [2] is: measured here: lipid fluorescence (Fed channel) AC50, cells fed with added oleic acid.

Usually AC50 stands for the concentration giving half of the maximal activity seen. A low value points to activity at low concentration.

Each structure is given as a SMILES string. Some of the results follow. These are further read-outs of the screen, such as a control signal, another cell line or another target. No call is given for them. Compounds called inactive in the main read-out are mostly missing here. The note in brackets gives the kind of curve behind each potency; many fits are weak.

In the case of `COc1ccc(CCNC(=O)Nc2cccc([N+](=O)[O-])c2)cc1`, the cell number change was -25.1%. For the same molecule, the AC50 under setting [1] is 4.11 nM [falling, full curve, poor fit].

On to `CC(C)C(NS(=O)(=O)c1ccccc1)C(=O)NC1CCCC1` (stereo unspecified), for which the cell number change was -1.16%. Also, the concentration at half-maximal activity (AC50) under setting [2] was 1640 nM [rising, single point].

`CCC(C(=O)N1CCN(C(=O)c2ccco2)CC1)n1sc2ccccc2c1=O` (stereo unspecified): the cell number change is 6.57%. Further, the AC50 under setting [2] was 6510 nM [falling, single point].

For the molecule `Cc1cc(C)n(-c2ccc(C(=O)OCc3nnc(-c4ccccc4)o3)cc2)n1`, the cell number change is -4.01%.

With `Cc1ccc(C(=O)NC(=O)CSc2nncn2C)cc1`, the cell number change was found to be 12.5%. The AC50 under setting [1] was 7310 nM [rising, partial curve, poor fit]. Besides, the AC50 under setting [2] is 6510 nM [rising, single point].

In the case of `Cc1ccc(C(C2=C(O)CC(C)(C)CC2=O)C2C(=O)CC(C)(C)CC2=O)o1` (stereo unspecified), the cell number change was 17.9%. Besides, the AC50 under setting [2] is 29100 nM [rising, single point].

In the case of `O=C(c1ccc(Cl)cc1)c1cc([N+](=O)[O-])ccc1N1CCOCC1`, the cell number change was -25.3%. Besides, the AC50 under setting [2] is 8.2 nM [falling, full curve, poor fit].

For `COc1ccc(NC(=O)c2c(-c3c(Cl)cccc3Cl)noc2C)cn1`, the cell number change was found to be 20%. Under setting [2], the AC50 was 14600 nM [rising, partial curve].

For `Cc1ccc(S(=O)(=O)N/N=C/c2c(F)cccc2Cl)cc1`, the cell number change is -33.9%. Besides, under setting [1], the AC50 was 820 nM [falling, full curve, poor fit]. For the same molecule, the AC50 under setting [2] is 6510 nM [falling, single point].

Consider `CCOC(=O)c1cnc(-c2ccccc2)nc1-c1ccccc1`, for which the AC50 reads like this: under setting [1], 11.6 nM [rising, full curve]; under setting [2], 651 nM [rising, full curve, poor fit].

Regarding `CCOc1ccc(OCC)c(NC(=O)CCCN2C(=O)c3cccnc3C2=O)c1`, the cell number change was 20.5%. The AC50 under setting [2] was 259 nM [falling, full curve, poor fit].

For the molecule `COCCSc1ccccc1C(=O)NCC1CCCO1` (stereo unspecified), the cell number change is -12%. In addition, the AC50 under setting [1] is 1840 nM [falling, partial curve, poor fit]. Further, the AC50 under setting [2] is 2060 nM [falling, partial curve].

For the molecule `O=S(=O)(c1ccccc1)c1cnn(-c2ccccc2)c1-c1ccc(Cl)cc1`, the cell number change is -14.3%.

Consider `O=C(O)CC(NC(=O)CC(c1ccccc1)c1ccccc1)c1cccc([N+](=O)[O-])c1` (stereo unspecified), for which the cell number change is -7.8%.

As for `NS(=O)(=O)c1ccc(CCNC(=O)C2CCN(S(=O)(=O)c3c(Cl)cccc3Cl)CC2)cc1`, the cell number change is 8.24%. Further, under setting [2], the AC50 was 7310 nM [rising, partial curve].

Regarding `Cc1ccc(C(=O)Nc2nccc(C)n2)cc1`, the cell number change stood at 1.47%. Besides, under setting [2], the AC50 was 651 nM [rising, full curve, poor fit].

`CCn1c(=O)cc(SCC(=O)Nc2cccc(SC)c2)c2ccccc21`: the AC50 is, setting by setting: under setting [1], 82 nM [rising, partial curve, poor fit]; under setting [2], 4.11 nM [rising, full curve, poor fit].

Regarding `Cc1ccc([N+](=O)[O-])cc1S(=O)(=O)N1CCCCC1C(=O)O` (stereo unspecified), the cell number change was -30.5%. Also, the AC50 under setting [1] was 18400 nM [falling, partial curve]. The AC50 under setting [2] was 29100 nM [falling, single point].

As to `Cc1noc(C)c1S(=O)(=O)Nc1ccc(C(=O)NC2CCCCC2)cc1`, the cell number change is -11.1%. In addition, the concentration at half-maximal activity (AC50) under setting [2] was 2910 nM [rising, single point].

Consider `C=CCn1c(SCC(N)=O)nc(C)cc1=O`, for which the cell number change was 3.51%. For the same molecule, the concentration at half-maximal activity (AC50) under setting [2] is 130 nM [falling, full curve, poor fit].

Consider `CCN(CC)CCCNC(=S)N1CCN(c2nc3ccccc3n2CC)CC1`, for which the cell number change was found to be 18.6%. The AC50 under setting [2] is 23100 nM [rising, single point].

As to `COc1ccc(CC(=O)N/N=C(\C)c2cccnc2)cc1`, the cell number change stood at 37.7%. Also, the AC50 under setting [1] was 29100 nM [rising, single point].

With `Cn1c2c(c(=O)n(C)c1=O)C(NS(=O)(=O)c1ccccc1)(C(F)(F)F)C(=O)N2` (stereo unspecified), the cell number change was -16.6%. Under setting [1], the AC50 was 6510 nM [falling, single point]. Also, the AC50 under setting [2] is 3260 nM [falling, single point].

For `Cc1ccc(S(=O)(=O)Nc2ccccc2C(=O)Nc2ccc(S(=O)(=O)Nc3nccc(C)n3)cc2)cc1`, the cell number change came out at 6.08%. Besides, under setting [2], the AC50 was 13000 nM [rising, single point].

As for `O=C(NCc1ccccc1F)c1ccc2c(c1)OCCO2`, the cell number change was 14.4%. For the same molecule, the AC50 under setting [2] is 29100 nM [rising, single point].

Turning to `COc1cc2c3c(c1)C(C)CC(C)(C)N3C(=O)C2=O` (stereo unspecified), the cell number change is 5.86%. The half-maximal activity concentration (AC50) under setting [2] was 29100 nM [rising, single point].

As for `COc1ccc(/[N+]([O-])=C/c2ccoc2)cc1`, the cell number change is -7.61%. Further, the AC50 under setting [2] is 18400 nM [falling, single point].

In the case of `Cc1ccc(S(=O)(=O)N2CCCCC2)cc1NC(=O)COC(=O)Cc1cccc(C(F)(F)F)c1`, the cell number change is -5.8%. The concentration at half-maximal activity (AC50) under setting [1] was 326 nM [falling, partial curve, poor fit].

Take `COC(c1ccccc1)c1nnc(CCC(=O)NCCCc2ccccc2)o1` (stereo unspecified): the cell number change was -56.9%. For the same molecule, the AC50 under setting [1] was 2060 nM [falling, full curve]. Moreover, the AC50 under setting [2] was 2060 nM [falling, full curve].

Take `CCCc1cc(=O)[nH]c(SCc2cc(Cl)ccc2OC(F)F)n1`: the cell number change is -14.4%.

In the case of `Cc1ccc(C(=O)NCCc2nnc3ccc(SCC(=O)Nc4ccccc4F)nn23)cc1`, the cell number change turned out to be 17.8%. Besides, the AC50 under setting [2] was 29100 nM [rising, single point].

Consider `Cc1ccc(S(=O)(=O)Nc2cccc(-c3ccc(N4CCCCCC4)nn3)c2)cc1C`, for which the cell number change amounted to 8.06%. Also, the AC50 under setting [2] is 326 nM [falling, single point].

Regarding `O=C(O)c1ccc(N/N=C/c2cccc3nccnc23)cc1`, the cell number change amounted to 24.7%. Further, under setting [1], the half-maximal activity concentration (AC50) was 92 nM [rising, full curve, poor fit]. Besides, the concentration at half-maximal activity (AC50) under setting [2] was 1160 nM [rising, partial curve].

`Cc1ccccc1NC(=O)c1cccc(S(=O)(=O)N2CCCCC2)c1`: the cell number change is 10.1%.

With `c1ccc(CN2CCN(CCN3CCn4c3nc3ccccc34)CC2)cc1`, the cell number change was determined as 7.37%.

In the case of `CC1CC(OCC(O)CN2CCOCC2)CC(C)(C)C1` (stereo unspecified), the cell number change amounted to 33.2%. Under setting [1], the AC50 was 29100 nM [rising, single point]. The AC50 under setting [2] is 20600 nM [rising, partial curve].

Take `S=C(c1ccc2c(c1)OCO2)N1CCCCC1`: the cell number change is -10.9%. Moreover, the AC50 under setting [1] was 2310 nM [falling, single point].

Values taken from PubChem BioAssay AID2685 (National Center for Advancing Translational Sciences (NCATS), 2010).
